From article PMC5574712
No constants are given. Whether binding was seen depends on the method and setting. Binding seen in cells or lysates may run through a third protein. Some entries that bind do so weakly or less than the wild type.

By UniProt entry, the sequences of proteins in these tests, tags left out.
UniProt Q9Y297: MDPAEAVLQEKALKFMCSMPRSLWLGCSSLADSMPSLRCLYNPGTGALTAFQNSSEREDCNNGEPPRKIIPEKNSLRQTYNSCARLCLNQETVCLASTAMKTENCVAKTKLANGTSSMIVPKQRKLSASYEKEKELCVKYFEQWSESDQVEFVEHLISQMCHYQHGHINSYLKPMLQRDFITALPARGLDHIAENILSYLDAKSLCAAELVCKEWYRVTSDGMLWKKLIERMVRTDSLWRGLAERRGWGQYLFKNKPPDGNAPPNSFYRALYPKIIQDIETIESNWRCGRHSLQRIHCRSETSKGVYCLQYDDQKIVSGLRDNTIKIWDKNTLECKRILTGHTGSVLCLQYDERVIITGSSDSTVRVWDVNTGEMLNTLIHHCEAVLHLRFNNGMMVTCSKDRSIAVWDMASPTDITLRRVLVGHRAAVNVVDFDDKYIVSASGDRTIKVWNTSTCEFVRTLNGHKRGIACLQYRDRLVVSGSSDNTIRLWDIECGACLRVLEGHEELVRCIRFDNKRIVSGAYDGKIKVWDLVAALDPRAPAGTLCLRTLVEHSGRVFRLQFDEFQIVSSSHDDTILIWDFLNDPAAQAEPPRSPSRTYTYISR
UniProt P68400: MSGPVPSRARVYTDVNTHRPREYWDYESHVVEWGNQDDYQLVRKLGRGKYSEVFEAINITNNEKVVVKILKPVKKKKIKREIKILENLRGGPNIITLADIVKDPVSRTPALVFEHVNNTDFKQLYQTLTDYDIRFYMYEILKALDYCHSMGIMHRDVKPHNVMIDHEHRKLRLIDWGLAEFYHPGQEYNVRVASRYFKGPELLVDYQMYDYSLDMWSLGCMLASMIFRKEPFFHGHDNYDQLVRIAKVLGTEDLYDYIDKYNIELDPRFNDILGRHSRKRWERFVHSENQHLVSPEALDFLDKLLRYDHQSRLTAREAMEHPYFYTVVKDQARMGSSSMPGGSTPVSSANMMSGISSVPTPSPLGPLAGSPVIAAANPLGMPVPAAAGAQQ

Legend:
[1] = biological target: FLAG-tagged β-transducin repeat-containing protein (β-TrCP) (UniProt Q9Y297); test: co-IP; FLAG-β-TrCP captured on anti-FLAG M2 magnetic beads from lysates of HEK293T cells co-transfected with NSP1 vectors (24 h p.t.); lysis in 150 mM NaCl, 50 mM Tris-HCl pH 7.4, 1% Triton X-100; overnight at 4°C; elution with 0.1 M glycine pH 3.0; immunoblot; in Fig. 7A cells mock treated or treated with MLN4924
[2] = biological target: OSU NSP1 C42A (mutation of a conserved cysteine residue in the N-terminal RING domain) (porcine rotavirus strain OSU) (UniProt Q84940); test: as above

| Substance | binding [1] | binding [2] |
| --- | --- | --- |
| OSU NSP1 C42A (mutation of a conserved cysteine residue in the N-terminal RING domain) (from UniProt Q84940 1-486) | binds | – |
| OSU NSP1 E486Q (lacks the CKII priming residue; phosphorylation-defective ILD) (from UniProt Q84940 1-486) | no binding | – |
| casein kinase II (CKII), catalytic subunit detected with CKIIα antibody (from UniProt P68400 1-391) (enzyme) | – | binds |
